Data: patent publication US7794965B2, “Method of identifying modulators of PP2A methylase” (Signum Biosciences, Inc., priority 2002, dated 2010)

Settings: B6, B12

Structure (SMILES): CSCC[C@H](N)C(=O)O [methionine]
- Body weight, ratio methionine-enriched / not enriched (diets with folate): 0.9
- Brain weight, ratio methionine-enriched / not enriched (diets with folate): 1
- Heart weight, ratio methionine-enriched / not enriched (diets with folate): 0.9
- Body weight, ratio methionine-enriched / not enriched (diets without folate): 0.9
- Brain weight, ratio methionine-enriched / not enriched (diets without folate): 1
- Heart weight, ratio methionine-enriched / not enriched (diets without folate): 0.8

Read-outs that look alike come from different tables or passages of the source.
